# Results are given in words; binding and its absence hold for the method and conditions named. Some entries that bind do so weakly or less than the wild type.
# Sequences of proteins named here, by UniProt entry; tags and fusion partners are left off. A change or cut given only in a name is not applied to a line headed by its entry.
# UniProt P04386: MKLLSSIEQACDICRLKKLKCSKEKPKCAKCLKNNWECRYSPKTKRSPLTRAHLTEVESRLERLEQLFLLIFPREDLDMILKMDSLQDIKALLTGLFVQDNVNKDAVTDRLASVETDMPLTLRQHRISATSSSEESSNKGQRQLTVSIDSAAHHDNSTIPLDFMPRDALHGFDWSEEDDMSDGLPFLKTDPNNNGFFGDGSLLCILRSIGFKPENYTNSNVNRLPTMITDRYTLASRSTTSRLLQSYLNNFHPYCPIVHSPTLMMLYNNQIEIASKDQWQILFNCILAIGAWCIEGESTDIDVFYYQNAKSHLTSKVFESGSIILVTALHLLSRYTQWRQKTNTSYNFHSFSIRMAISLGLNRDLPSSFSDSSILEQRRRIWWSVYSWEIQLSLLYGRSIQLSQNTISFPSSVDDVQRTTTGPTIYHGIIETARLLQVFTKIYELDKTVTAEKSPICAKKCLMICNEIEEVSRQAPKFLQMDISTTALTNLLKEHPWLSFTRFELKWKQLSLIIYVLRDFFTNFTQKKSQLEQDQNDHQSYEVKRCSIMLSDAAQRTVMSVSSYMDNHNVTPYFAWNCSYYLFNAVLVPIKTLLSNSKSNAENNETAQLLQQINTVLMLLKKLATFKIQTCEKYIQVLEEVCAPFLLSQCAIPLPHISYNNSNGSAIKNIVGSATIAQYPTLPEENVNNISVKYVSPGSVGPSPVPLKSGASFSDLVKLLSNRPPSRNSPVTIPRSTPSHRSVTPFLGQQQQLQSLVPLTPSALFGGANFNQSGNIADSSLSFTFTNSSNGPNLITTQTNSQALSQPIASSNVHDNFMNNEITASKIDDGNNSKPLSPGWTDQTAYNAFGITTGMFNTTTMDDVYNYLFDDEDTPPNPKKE
# How the values were obtained:
# [1] = molecular target: T1, VP16-SXR (human) (UniProt O75469); test: mammalian two-hybrid in HepG2 cells (GAL4 reporter, VP16-SXR, GAL-SRC1), with 10 µM rifampicin
# T1 sequence: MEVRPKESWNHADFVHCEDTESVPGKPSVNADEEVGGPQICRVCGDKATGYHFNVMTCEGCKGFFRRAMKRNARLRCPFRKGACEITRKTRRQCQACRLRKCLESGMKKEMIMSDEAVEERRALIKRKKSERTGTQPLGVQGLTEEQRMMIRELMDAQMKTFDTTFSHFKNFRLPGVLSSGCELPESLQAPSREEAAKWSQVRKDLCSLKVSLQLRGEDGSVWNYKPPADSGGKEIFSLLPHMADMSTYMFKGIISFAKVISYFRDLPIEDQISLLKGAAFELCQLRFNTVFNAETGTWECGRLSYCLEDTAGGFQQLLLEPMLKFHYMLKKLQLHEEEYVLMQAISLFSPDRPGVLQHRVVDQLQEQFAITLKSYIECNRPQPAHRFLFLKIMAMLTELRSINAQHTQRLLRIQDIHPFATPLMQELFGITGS
# [2] = molecular target: T1, VP16-SXR (human); test: mammalian two-hybrid in HepG2 cells (GAL4 reporter, VP16-SXR, GAL-PBP), with 10 µM rifampicin
Substance,binding [1],binding [2]
GAL4 DNA-binding domain linked to the receptor interaction domains of steroid receptor coactivator-1 (GAL-SRC1) (from UniProt P04386 1-147; Q15788 595-780),binds,–
GAL4 DNA-binding domain linked to the receptor interaction domains of peroxisome proliferator-activated receptor-binding protein (GAL-PBP) (from UniProt P04386 1-147; Q15648 560-700),–,binds

# Source: US20080124407A1, “INHIBITING CYP3A4 INDUCTION” (UNIVERSITY OF WASHINGTON, priority 2006, published 2008)
